Data reported in paper PMC12040169 (PLOS Biology, 2025).
The list shows a part of the results.

Tested on: T1, CTL2-GFP (C. trachomatis L2/434/Bu, GFP-expressing)
T1 construct: L2/434/Bu, GFP-expressing
Parameters: species or system HeLa; Intracellular C. trachomatis growth in HeLa cells, bulk GFP fluorescence relative to DMSO
Conditions: bulk GFP, single well; 28.5 h, 10 µM; inhibitor

Row | Structure (SMILES) | % of control remaining [%]
1 | Cc1cc2oc(C(=O)Nc3nc(-c4ccc(S(=O)(=O)N5CCCC5)cc4)cs3)c(C)c2cc1C [CBK266309] | 141.386
2 | Cc1cc(NC(=O)c2cccc(C(F)(F)F)c2)nc2c1c(=O)oc1ccccc12 [CBK291163] | 141.686
3 | CC1CCN(Cc2ccc(-c3nnn(CC(=O)NCc4ccc(S(C)(=O)=O)cc4)n3)cc2)CC1 [CBK144152C] | 126.891
4 | Cc1nn(C)c(Cl)c1S(=O)(=O)Nc1cc(N2CCN(C(=O)OC(C)(C)C)CC2)c2occc2c1 [CBK067787] | 132.718
5 | CCOc1ccc(CN2CCNC(=O)C2CC(=O)O)cc1 (centres unmarked) [CBK269242] | 135.92
6 | O=C(Cn1c(C2CCCNC2)cc2cccnc21)N1CCCCCC1 (centres unmarked) [CBK285014] | 119.468
7 | O=C(O)CSc1nc2ccccc2n1CC(=O)O [CBK267128] | 137.808
8 | Cc1nc(NS(=O)(=O)c2ccc3ccccc3c2)sc1C(=O)O [CBK045548] | 76.8173
9 | O=S(=O)(Nc1nc2cc(Cl)ccc2o1)c1ccc(Oc2ccccc2)cc1 [CBK050499] | 100
10 | O=C1CC(N2CCC(c3nc4ccccc4o3)CC2)C(=O)N1Cc1cccs1 (centres unmarked) [CBK268735] | 136.956
11 | CCCCc1ccc(-c2nccn2CC2CN(C(C)=O)CCO2)s1 (centres unmarked) [CBK307600] | 98.8178
12 | O=C1c2ccc(Oc3ccc4c(c3)C(=O)N(c3ccncc3)C4=O)cc2C(=O)N1c1ccncc1 [CBK261399] | 100
13 | COC(=O)c1ccccc1NC(=O)CCSc1ccc(Cl)cc1 [CBK263817] | 79.2596
14 | COCc1ccc(C(=O)N2CCCC(c3cc4ncccc4[nH]3)C2)o1 (centres unmarked) [CBK282106] | 134.128
15 | Cc1ccc2[nH]c3c(c2c1)CCNC31CCN(CC2CCCCO2)CC1 (centres unmarked) [CBK039545] | 124.111
16 | C#CCNC(=O)[C@@H]1Cc2cn(Cc3nccn3C)c3cccc(c23)[C@H](CC(C)C)N1 [CBK289424] | 101.93
17 | COc1c(C)cccc1C(=O)NC(=S)Nc1sc2c(c1C(N)=O)CCC2 [CBK265587] | 118.947
18 | CCn1nc(C)c(-c2cncn2CCn2nc(C)c(Cl)c2C)c1C [CBK281768] | 140.742
19 | CCNc1cncc(-c2ccc(OC)cc2)n1 [CBK065370] | 183.479
20 | O=C(OCc1ccccc1)N1CCC(C2OCc3cc(-c4ccc(C(=O)N5CCCCC5)cc4)ccc3O2)CC1 (centres unmarked) [CBK153262] | 105.871
21 | Cc1ccc(F)c(S(=O)(=O)NC(C)Cc2ccccn2)c1 (centres unmarked) [CBK281427] | 107.797
22 | CCN(CC)CCN1C(=O)C(O)=C(C(=O)c2cc3ccccc3o2)C1c1ccccn1 (centres unmarked) [CBK266413] | 137.188
23 | O=C(CC1CCCCC1)Nc1snnc1-c1ccc(Cl)cc1 [CBK153245] | 103.294
24 | COc1cccc(OC)c1-c1cn2ccnc2c(NCCc2ccccn2)n1 [CBK066173] | 142.962
25 | O=C(CCCSC1=NC(C(F)(F)F)CC(c2ccco2)N1)Nc1ccc(Cl)c(Cl)c1 (centres unmarked) [CBK268858] | 139.89
26 | CCCNC(=O)Nc1ccc(Cl)c(C(=O)O)c1 [CBK287009] | 159.719

Row | Structure (SMILES) | % of control remaining [%]
27 | O=C(CN(Cc1ccccc1Cl)S(=O)(=O)c1ccc(Cl)cc1)NC1CCCCC1 [CBK264659] | 104.039
28 | O=C(CC1(O)C(=O)N(CCc2ccccc2)c2ccc(Br)cc21)c1ccncc1 (centres unmarked) [CBK293976] | 148.791
29 | Cc1ccc(S(=O)(=O)N(CC(=O)N2CCN(C)CC2)Cc2ccc(Cl)cc2Cl)cc1 [CBK265144] | 165.601
30 | CCc1nc(N)nc(N2CCC3(CCC(CNC(C)=O)O3)CC2)c1C (centres unmarked) [CBK307168] | 119.429
31 | Cc1ncsc1CCOc1nc2cc(Cl)c(Cl)cc2nc1NC(C)C [CBK115744] | 100
32 | O=CN1CCc2c([nH]c3ccccc23)C12CCCN(Cc1ccc(C(F)(F)F)cc1)C2 (centres unmarked) [CBK039587] | 124.103
33 | O=c1[nH]c2ncc(-c3cccc(OC(F)(F)F)c3)nc2n1C1CCCCC1 [CBK064187] | 153.257
34 | COc1cc(C(=O)N2CCC3(CC2)NC(=O)c2cc(C)ccc2O3)ccc1C [CBK166276] | 148.333
35 | O=C(Nc1ccc2[nH]c(C3CCCCC3)nc2c1)C1CCCCC1 [CBK020680] | 124.09
36 | CN1CCC(C(=O)Nc2cccc(Cn3cccn3)c2)C1 (centres unmarked) [CBK281991] | 89.0109
37 | COc1nccnc1/C=C/c1ccccc1 [CBK106876] | 95.6084
38 | c1ccc(CC(NCc2c[nH]c3ccccc23)c2ccccc2)cc1 (centres unmarked) [CBK262087] | 73.7428
39 | CCC(CN1CCOCC1)NC(=O)Cc1c(C)[nH]c2ccc(F)cc12 (centres unmarked) [CBK282774] | 113.238
40 | O=C(C[S+]([O-])c1nc2ccccc2[nH]1)N1CCOCC1 (centres unmarked) [CBK016397] | 100.858
41 | O=C(O)c1cccc(NC(=O)c2cnc(-c3ccccc3)c(-c3ccco3)c2)c1 [CBK036710] | 200.647
42 | CCOc1ccc(S(=O)(=O)N2CCC(C(=O)N3CCOCC3)CC2)cc1Cl [CBK270288] | 147.599
43 | O=C1NC(=S)N/C1=C/c1cc2c(cc1Cl)OCO2 [CBK261818] | 120.123
44 | Cc1ccc(CN(CCCN(C)C)Cc2cnc(C)n2C)o1 [CBK283188] | 144.79
45 | CCn1nc(C)c(CN2CCCC(c3cc4cccnc4[nH]3)C2)c1C (centres unmarked) [CBK284977] | 142.456
46 | CCOC(=O)N1CCN(C2CCCN(Cc3cnc(N(C)C)s3)C2)CC1 (centres unmarked) [CBK307041] | 169.577
47 | O=C(O)c1cc(-c2ccc(-c3ccc(Cl)c(C(F)(F)F)c3)o2)nc2ccc(F)cc12 [CBK300501] | 121.429
48 | O=C(CCN1C(=O)COc2ccccc21)NCCCN1CCN(c2ccccc2F)CC1 [CBK294469] | 144.873
49 | CC(=O)NCC1CC(=O)N(c2ccc(Br)cc2)C1 (centres unmarked) [CBK008134] | 136.537
50 | O=C(N[C@@H](Cn1cc(Cl)c(=O)[nH]c1=O)C(=O)O)C1CCCCC1 [CBK289648] | 156.093
51 | CC(=S)NCC1CC(c2ccc(N3CC[S+]([O-])CC3)c(F)c2)=NO1 (centres unmarked) [CBK017992] | 107.414
52 | COc1nc(OC)nc(OC2=CC(=O)CC(C)(C)C2)n1 [CBK020772] | 119.73

Row | Structure (SMILES) | % of control remaining [%]
53 | O=C(c1ccco1)N1CCN(c2cc(-c3ccc(OCc4ccccc4)cc3)ncn2)CC1 [CBK037844] | 121.814
54 | COc1ccccc1/C=N/C12CN3CN(CN(C3)C1)C2 [CBK261387] | 109.117
55 | COC(=O)[C@@H]1Cc2ncn(C(C)C)c2CN1S(=O)(=O)c1ccc([N+](=O)[O-])cc1 [CBK288985] | 134.607
56 | Cc1c(C(=O)Nc2ccc(S(=O)(=O)N(C)Cc3ccccc3)cc2)cccc1[N+](=O)[O-] [CBK267534] | 86.9395
57 | Cc1ccc(S(=O)(=O)NCCNc2ccc([N+](=O)[O-])cc2C(F)(F)F)cc1 [CBK265140] | 108.772
58 | COCCNC(=O)c1ccc(-c2ccccc2C)nc1NC(C)=O [CBK106325] | 107.463
59 | CN1C(=O)COC[C@@H]1[C@H](O)c1ccc(NC(=O)C2CC2)cc1 [CBK289057] | 128.726
60 | CC1(C)CC(=O)c2sc(NC(=O)c3cncnc3)nc2C1 [CBK144107] | 112.431
61 | CCOc1ccc(C(=O)Nc2nonc2CC)cc1 [CBK287287] | 124.455
62 | CC(=O)NC[C@H]1C[C@@H]2CCN1C[C@@H]2c1cc(-c2ccco2)nc(C)n1 [CBK289128] | 119.369
63 | CN(C)c1cccc(-c2cnc3[nH]c(=O)n(-c4ccc5[nH]ccc5c4)c3n2)c1 [CBK064682] | 134.102
64 | Cc1noc(C)c1CCC(=O)NCc1cccc(C#N)c1 [CBK305938] | 127.202
65 | O=c1[nH]ccn1CCNc1cc(-c2ccccc2Oc2ccccc2)ncn1 [CBK036966] | 122.303
66 | COc1ccccc1N1CCN(CC2CN(c3ccccc3)c3ccccc3O2)CC1 (centres unmarked) [CBK066872C] | 80.7616
67 | Nc1nc(OCc2ccccc2)cnc1-c1cccc(C(F)(F)F)c1 [CBK145179] | 100
68 | CCOc1ccccc1C(=O)Nc1cnc(-c2cccc(C)c2)c(-c2ccc(N)cc2)n1 [CBK036783] | 163.82
69 | Cc1ccc2nc(-c3ccc4c(c3)CCN4S(C)(=O)=O)cn2c1 [CBK285185] | 140.627
70 | CSc1cccc(C(=O)Nc2sc3c(c2C#N)CCN(C(C)=O)C3)c1 [CBK304390] | 131.406
71 | COc1ccc(Cl)cc1NS(=O)(=O)N(C)C [CBK025794] | 136.429
72 | N#Cc1ccc(CNC(=O)N2CCN(Cc3ccccc3)CC2)cc1 [CBK155637] | 126.009
73 | CC(=O)Nc1ccc(-c2csc(Nc3ccc(S(=O)(=O)Nc4nc(C)cc(C)n4)cc3)n2)cc1 [CBK267295] | 101.457
74 | CC(C)(C)OC(=O)N1CCN(Cc2nnc(Cc3ccccc3)o2)CC1 [CBK306223] | 96.3418
75 | Cn1cc(CNC(=O)Nc2cccc(CN3CCCCC3=O)c2)cn1 [CBK305062] | 117.167
76 | CCCSc1ccc2[nH]c(NC(=O)CSc3nc[nH]n3)nc2c1 [CBK270181] | 99.4437
77 | O=C(O)c1cccc(-n2c(S)nnc2-c2ccncc2)c1 [CBK269260] | 125.142

Part of the list above in order of SMILES length, low to high:
Row | Structure (SMILES) | % of control remaining [%]
61 | CCOc1ccc(C(=O)Nc2nonc2CC)cc1 [CBK287287] | 124.455
71 | COc1ccc(Cl)cc1NS(=O)(=O)N(C)C [CBK025794] | 136.429
64 | Cc1noc(C)c1CCC(=O)NCc1cccc(C#N)c1 [CBK305938] | 127.202
54 | COc1ccccc1/C=N/C12CN3CN(CN(C3)C1)C2 [CBK261387] | 109.117
77 | O=C(O)c1cccc(-n2c(S)nnc2-c2ccncc2)c1 [CBK269260] | 125.142
58 | COCCNC(=O)c1ccc(-c2ccccc2C)nc1NC(C)=O [CBK106325] | 107.463
75 | Cn1cc(CNC(=O)Nc2cccc(CN3CCCCC3=O)c2)cn1 [CBK305062] | 117.167
76 | CCCSc1ccc2[nH]c(NC(=O)CSc3nc[nH]n3)nc2c1 [CBK270181] | 99.4437
69 | Cc1ccc2nc(-c3ccc4c(c3)CCN4S(C)(=O)=O)cn2c1 [CBK285185] | 140.627
65 | O=c1[nH]ccn1CCNc1cc(-c2ccccc2Oc2ccccc2)ncn1 [CBK036966] | 122.303
70 | CSc1cccc(C(=O)Nc2sc3c(c2C#N)CCN(C(C)=O)C3)c1 [CBK304390] | 131.406
66 | COc1ccccc1N1CCN(CC2CN(c3ccccc3)c3ccccc3O2)CC1 (centres unmarked) [CBK066872C] | 80.7616
59 | CN1C(=O)COC[C@@H]1[C@H](O)c1ccc(NC(=O)C2CC2)cc1 [CBK289057] | 128.726
68 | CCOc1ccccc1C(=O)Nc1cnc(-c2cccc(C)c2)c(-c2ccc(N)cc2)n1 [CBK036783] | 163.82
57 | Cc1ccc(S(=O)(=O)NCCNc2ccc([N+](=O)[O-])cc2C(F)(F)F)cc1 [CBK265140] | 108.772
63 | CN(C)c1cccc(-c2cnc3[nH]c(=O)n(-c4ccc5[nH]ccc5c4)c3n2)c1 [CBK064682] | 134.102
56 | Cc1c(C(=O)Nc2ccc(S(=O)(=O)N(C)Cc3ccccc3)cc2)cccc1[N+](=O)[O-] [CBK267534] | 86.9395
73 | CC(=O)Nc1ccc(-c2csc(Nc3ccc(S(=O)(=O)Nc4nc(C)cc(C)n4)cc3)n2)cc1 [CBK267295] | 101.457
55 | COC(=O)[C@@H]1Cc2ncn(C(C)C)c2CN1S(=O)(=O)c1ccc([N+](=O)[O-])cc1 [CBK288985] | 134.607

Look-ups from the list.
In % of control remaining [%], `Nc1nc(OCc2ccccc2)cnc1-c1cccc(C(F)(F)F)c1` [CBK145179] is entered as 100
In % of control remaining [%], `CN1C(=O)COC[C@@H]1[C@H](O)c1ccc(NC(=O)C2CC2)cc1` [CBK289057] is entered as 128.726
